Laboratory results as given in publication PMC4935465.
No constants are given. Whether binding was seen depends on the method and setting. A result given as binding can be weak or reduced; the word gives no strength. Sequences can lack the tags named with a protein.

Target: T1, Dor/Vps18 (yeast two-hybrid fusion) (Drosophila melanogaster) (UniProt Q24314)
T1 sequence: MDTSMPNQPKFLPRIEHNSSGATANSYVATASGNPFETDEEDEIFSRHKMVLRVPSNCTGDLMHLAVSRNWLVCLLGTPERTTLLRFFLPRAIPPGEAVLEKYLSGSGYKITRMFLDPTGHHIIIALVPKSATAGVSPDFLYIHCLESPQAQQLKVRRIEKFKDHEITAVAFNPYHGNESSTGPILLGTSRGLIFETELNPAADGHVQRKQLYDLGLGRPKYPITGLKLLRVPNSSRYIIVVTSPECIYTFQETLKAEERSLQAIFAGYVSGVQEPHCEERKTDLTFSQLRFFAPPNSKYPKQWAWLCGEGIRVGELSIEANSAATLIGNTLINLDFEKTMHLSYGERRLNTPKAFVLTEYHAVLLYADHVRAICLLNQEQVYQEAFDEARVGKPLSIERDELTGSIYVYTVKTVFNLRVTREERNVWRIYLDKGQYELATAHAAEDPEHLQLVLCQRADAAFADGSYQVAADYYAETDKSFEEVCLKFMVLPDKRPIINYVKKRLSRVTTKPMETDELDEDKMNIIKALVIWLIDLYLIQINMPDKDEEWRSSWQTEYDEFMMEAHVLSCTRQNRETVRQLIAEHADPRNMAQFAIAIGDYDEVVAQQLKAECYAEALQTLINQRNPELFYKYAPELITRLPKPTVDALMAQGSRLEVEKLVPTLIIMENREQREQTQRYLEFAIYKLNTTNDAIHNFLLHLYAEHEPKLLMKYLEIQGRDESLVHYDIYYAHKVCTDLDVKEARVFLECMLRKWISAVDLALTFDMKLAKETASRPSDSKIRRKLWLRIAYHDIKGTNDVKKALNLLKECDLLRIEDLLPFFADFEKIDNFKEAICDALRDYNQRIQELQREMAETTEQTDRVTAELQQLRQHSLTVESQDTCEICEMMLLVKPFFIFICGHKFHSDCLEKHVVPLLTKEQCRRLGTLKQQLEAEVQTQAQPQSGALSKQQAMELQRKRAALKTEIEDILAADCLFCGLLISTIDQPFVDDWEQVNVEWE
Experiment: two-hybrid; pGADT7 AD and pGBKT7 BD fusions in yeast strain PJ69-4A; growth on Trp-, Leu-, Ade- plates; empty vectors as negative controls

For “Rbsn-5 (yeast two-hybrid fusion) (from UniProt Q9VLS5)”, the binding was “binds”.
